The text below walks through data of PubChem BioAssay AID1362 (SRMLSC, 2008).

Some of the results follow.

This assay in a line: growth inhibition of WT strain, primary screen, mitochondrial fusion inhibitor project, WT and mutant strains, chemical genetic (AID 1362). Also: tested in S. cerevisiae. Particulars: mitochondrial fusion phenotypic screen, at 10 µM.
With `Cc1c(NP(C)(=O)Oc2ccc(C(C)C)cc2)c(=O)n(-c2ccccc2)n1C` (stereo not drawn), the inhibition was -5.26%.

For `O=[N+]([O-])c1cc([N+](=O)[O-])c(Nc2ccccn2)c([N+](=O)[O-])c1`, the inhibition was found to be 21.5%.

For `CC(C)CC(=O)NC(Sc1ccc(Cl)cc1)C(Cl)(Cl)Cl` (stereo not drawn), the inhibition turned out to be 28.3%.

In the case of `Oc1ccccc1CNc1ccccn1`, the inhibition turned out to be 4.6%.

As to `O=C(NC(Sc1ccncn1)C(Cl)(Cl)Cl)c1ccccc1` (stereo not drawn), the inhibition is -16.3%.

For `Cc1c2non([O-])c-2c(C)[n+](=O)[n+]1[O-]`, the inhibition is -0.88%.

Consider `CP(=O)(Nc1ccccn1)Oc1ccccc1` (stereo not drawn), for which the inhibition is -20.7%.

`COc1ccccc1OP(C)(=O)Nc1ccc(C)cc1C` (stereo not drawn): the inhibition is 13.4%.

As to `CCc1ccc(OP(C)(=O)O)cc1`, the inhibition was 6.84%.

Consider `NC(=O)c1cc([N+](=O)[O-])cc([N+](=O)[O-])c1N`, for which the inhibition was -9.56%.

For the molecule `Cc1ccc(N/C(=N/P(=O)(N2CCOCC2)N2CCOCC2)N2CCOCC2)cc1`, the inhibition is -2.76%.

For the molecule `COc1ccccc1OP(=O)(Nc1ccc(C)cn1)Oc1ccccc1OC`, the inhibition was determined as 1.4%.

With `COc1ccc(OP(C)(=O)Nc2ccccn2)cc1` (stereo not drawn), the inhibition was -9.85%.

Regarding `CN1CCCC(OC(=O)C(c2ccccc2)c2ccccc2)C1` (stereo not drawn), the inhibition is -14.1%.

With `CN(C)CCOC(=O)C(O)(c1ccccc1)C1CCCC1` (stereo not drawn), the inhibition is -3.92%.

For `Clc1ccc(Cl)c(NC2=NCC(CBr)S2)c1` (stereo not drawn), the inhibition stood at 16.9%.

Turning to `Cc1nc2ccc3ccccc3c2o1.O=[N+]([O-])c1cc([N+](=O)[O-])c(O)c([N+](=O)[O-])c1`, the inhibition was determined as 2.02%.

Consider `CCN(N=Nc1nonc1N)c1nonc1N`, for which the inhibition was 11.7%.

`CP(=O)(Nc1ccc(Cl)cc1Cl)Oc1ccccc1` (stereo not drawn): the inhibition came out at 12.9%.

Consider `CP(=O)(OCCOc1ccccc1)OCCOc1ccccc1`, for which the inhibition is -0.15%.

As for `Cc1cc(C)cc(OP(C)(=O)Nc2cccc(C(F)(F)F)c2)c1` (stereo not drawn), the inhibition was -2.25%.

For `Cc1cc(SC(NC(=O)c2ccc(F)cc2)C(Cl)(Cl)Cl)ncn1` (stereo not drawn), the inhibition was -2.39%.

As for `CCOP(=O)(Nc1ccccc1)OCC`, the inhibition stood at 15.7%.

As to `COc1ccccc1OP(C)(=O)Nc1ccc(C)c(C)c1` (stereo not drawn), the inhibition was -21.8%.

`COc1ccc(OP(C)(=O)Nc2ccccc2Br)cc1` (stereo not drawn): the inhibition was 7.94%.

Turning to `O=[N+]([O-])c1ncn(CCn2ncnc2[N+](=O)[O-])n1`, the inhibition was 19.8%.

For `CCOC(=O)c1ccc(NP(C)(=O)Oc2ccc(Cl)cc2)cc1` (stereo not drawn), the inhibition was -4.74%.

As to `CP(=O)(OC12CC3CC(CC(C3)C1)C2)OC12CC3CC(CC(C3)C1)C2`, the inhibition was 12.2%.

On to `COc1ccccc1OP(C)(=O)Nc1ccccc1Br` (stereo not drawn), for which the inhibition was -9.5%.

`CCN(/C(=N/P(=O)(N1CCOCC1)N1CCOCC1)N1CCOCC1)c1ccc(OC)cc1`: the inhibition was -2.68%.

For `CP(=O)(Nc1ccc(Cl)cc1)Oc1ccc(F)cc1` (stereo not drawn), the inhibition is -1.81%.

Turning to `CC(C)=N/N=C(\N)N[N+](=O)[O-]`, the inhibition was -7.73%.

As to `CN(C)C(=O)c1c([N+](=O)[O-])cc([N+](=O)[O-])cc1[N+](=O)[O-]`, the inhibition turned out to be 10.7%.

Broadly, the inhibition is the change of the read-out against control, counted positive when it falls.
